Laboratory results published in doi:10.1101/2021.09.10.459716.

Target: T1, S. islandicus Dpo1 (SiRe_1451) (Sulfolobus islandicus) (UniProt F0NBI0)
T1 sequence: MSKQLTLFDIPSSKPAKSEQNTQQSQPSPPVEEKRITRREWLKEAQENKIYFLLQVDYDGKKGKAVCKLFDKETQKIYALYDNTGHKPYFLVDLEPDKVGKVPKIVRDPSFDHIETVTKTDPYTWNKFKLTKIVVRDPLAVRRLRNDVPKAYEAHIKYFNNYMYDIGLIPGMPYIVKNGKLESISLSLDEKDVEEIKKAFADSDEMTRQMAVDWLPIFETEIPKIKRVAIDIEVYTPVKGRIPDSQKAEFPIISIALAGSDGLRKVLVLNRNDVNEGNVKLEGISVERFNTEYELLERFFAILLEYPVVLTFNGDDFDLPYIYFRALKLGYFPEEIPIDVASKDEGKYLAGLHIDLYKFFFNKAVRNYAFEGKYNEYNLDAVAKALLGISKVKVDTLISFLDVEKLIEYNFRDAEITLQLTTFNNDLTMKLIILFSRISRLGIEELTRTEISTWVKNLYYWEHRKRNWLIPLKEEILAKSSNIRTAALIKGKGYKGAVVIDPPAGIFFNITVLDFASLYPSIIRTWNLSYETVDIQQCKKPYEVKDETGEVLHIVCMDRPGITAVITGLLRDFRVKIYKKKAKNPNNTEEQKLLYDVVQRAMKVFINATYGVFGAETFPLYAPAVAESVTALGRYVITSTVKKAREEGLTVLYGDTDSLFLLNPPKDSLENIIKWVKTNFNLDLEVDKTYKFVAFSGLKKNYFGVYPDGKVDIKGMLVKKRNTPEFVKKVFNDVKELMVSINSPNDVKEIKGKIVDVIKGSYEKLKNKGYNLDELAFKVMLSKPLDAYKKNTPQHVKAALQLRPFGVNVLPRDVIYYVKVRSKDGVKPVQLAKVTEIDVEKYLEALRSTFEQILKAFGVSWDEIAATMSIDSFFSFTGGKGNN
Assay: affinity purification with mass spectrometry

binding: binds
B1: PBP1 (SiRe_1861) (protein, UniProt F0NI39 1-97)
chain: MSTRWSPKWKAIEIDHNNKKVTICYDETTKLYVCPICSPNCAKGVSTDYSTYFFDLEDLKRHLDAHKHGLWLQKKIRTEEEEEEPKLSVGEEEIEEE

Results are given in words; binding and its absence hold for the method and conditions named. In cells and extracts the contact can be indirect. These calls come from enrichment with a bait or labelling near it, and not all partners need be listed.
